From PMC11336944
These are yes or no findings as the source states them, for the method shown. Binding seen in cells or lysates may run through a third protein. Some binding calls cover weakened binding; strength is not graded here.

Sequences of proteins named here, by UniProt entry; tags and fusion partners are left off.
UniProt O70133: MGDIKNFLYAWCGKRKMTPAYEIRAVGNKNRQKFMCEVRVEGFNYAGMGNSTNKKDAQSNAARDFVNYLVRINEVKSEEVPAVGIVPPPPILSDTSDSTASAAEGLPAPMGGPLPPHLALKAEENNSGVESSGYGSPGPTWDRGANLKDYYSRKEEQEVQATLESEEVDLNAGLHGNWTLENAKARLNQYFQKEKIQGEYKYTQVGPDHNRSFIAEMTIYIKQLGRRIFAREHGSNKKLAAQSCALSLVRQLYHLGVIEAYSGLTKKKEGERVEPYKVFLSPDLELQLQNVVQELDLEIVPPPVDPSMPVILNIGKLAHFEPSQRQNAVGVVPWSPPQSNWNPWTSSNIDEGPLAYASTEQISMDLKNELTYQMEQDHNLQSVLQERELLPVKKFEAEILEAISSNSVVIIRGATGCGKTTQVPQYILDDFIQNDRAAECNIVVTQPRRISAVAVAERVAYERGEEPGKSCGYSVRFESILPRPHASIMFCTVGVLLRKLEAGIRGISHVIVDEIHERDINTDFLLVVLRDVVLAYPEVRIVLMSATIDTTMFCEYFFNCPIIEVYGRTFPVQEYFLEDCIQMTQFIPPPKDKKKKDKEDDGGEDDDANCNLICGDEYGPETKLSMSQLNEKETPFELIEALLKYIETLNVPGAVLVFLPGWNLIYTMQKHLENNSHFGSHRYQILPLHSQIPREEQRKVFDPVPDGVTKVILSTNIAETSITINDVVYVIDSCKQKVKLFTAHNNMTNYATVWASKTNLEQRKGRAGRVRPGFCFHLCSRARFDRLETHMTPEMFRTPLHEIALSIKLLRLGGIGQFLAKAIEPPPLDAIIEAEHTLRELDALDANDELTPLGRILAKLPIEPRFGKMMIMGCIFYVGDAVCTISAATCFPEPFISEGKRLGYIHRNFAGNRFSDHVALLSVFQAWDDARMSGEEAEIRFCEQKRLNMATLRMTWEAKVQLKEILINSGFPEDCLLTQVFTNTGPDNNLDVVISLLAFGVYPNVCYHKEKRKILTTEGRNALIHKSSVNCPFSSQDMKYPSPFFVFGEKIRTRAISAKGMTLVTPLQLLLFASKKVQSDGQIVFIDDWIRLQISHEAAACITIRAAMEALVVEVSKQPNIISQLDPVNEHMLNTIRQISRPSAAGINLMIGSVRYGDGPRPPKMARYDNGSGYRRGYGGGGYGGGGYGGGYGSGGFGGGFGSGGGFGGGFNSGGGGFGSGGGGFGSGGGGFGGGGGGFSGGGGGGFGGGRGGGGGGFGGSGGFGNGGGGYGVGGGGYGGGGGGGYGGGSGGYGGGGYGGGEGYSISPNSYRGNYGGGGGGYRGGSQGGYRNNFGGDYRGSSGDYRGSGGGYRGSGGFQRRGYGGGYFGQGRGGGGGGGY
UniProt P29341: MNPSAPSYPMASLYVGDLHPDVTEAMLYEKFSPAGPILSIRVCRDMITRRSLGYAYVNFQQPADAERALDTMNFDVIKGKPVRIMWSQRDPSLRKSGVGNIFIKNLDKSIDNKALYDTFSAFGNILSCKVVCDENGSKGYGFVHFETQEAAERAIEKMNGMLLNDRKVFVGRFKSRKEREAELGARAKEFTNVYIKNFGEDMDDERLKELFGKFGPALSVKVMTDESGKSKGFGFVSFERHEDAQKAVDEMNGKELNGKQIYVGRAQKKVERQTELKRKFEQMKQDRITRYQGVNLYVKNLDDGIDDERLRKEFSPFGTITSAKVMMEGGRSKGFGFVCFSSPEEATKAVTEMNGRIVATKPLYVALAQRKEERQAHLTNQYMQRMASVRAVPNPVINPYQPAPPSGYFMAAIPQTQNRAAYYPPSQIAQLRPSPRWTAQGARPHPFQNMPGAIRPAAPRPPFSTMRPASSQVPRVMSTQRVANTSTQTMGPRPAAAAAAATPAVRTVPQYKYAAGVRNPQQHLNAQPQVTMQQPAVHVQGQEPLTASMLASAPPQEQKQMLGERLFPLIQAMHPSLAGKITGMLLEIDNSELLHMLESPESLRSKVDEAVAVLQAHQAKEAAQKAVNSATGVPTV
UniProt O35286: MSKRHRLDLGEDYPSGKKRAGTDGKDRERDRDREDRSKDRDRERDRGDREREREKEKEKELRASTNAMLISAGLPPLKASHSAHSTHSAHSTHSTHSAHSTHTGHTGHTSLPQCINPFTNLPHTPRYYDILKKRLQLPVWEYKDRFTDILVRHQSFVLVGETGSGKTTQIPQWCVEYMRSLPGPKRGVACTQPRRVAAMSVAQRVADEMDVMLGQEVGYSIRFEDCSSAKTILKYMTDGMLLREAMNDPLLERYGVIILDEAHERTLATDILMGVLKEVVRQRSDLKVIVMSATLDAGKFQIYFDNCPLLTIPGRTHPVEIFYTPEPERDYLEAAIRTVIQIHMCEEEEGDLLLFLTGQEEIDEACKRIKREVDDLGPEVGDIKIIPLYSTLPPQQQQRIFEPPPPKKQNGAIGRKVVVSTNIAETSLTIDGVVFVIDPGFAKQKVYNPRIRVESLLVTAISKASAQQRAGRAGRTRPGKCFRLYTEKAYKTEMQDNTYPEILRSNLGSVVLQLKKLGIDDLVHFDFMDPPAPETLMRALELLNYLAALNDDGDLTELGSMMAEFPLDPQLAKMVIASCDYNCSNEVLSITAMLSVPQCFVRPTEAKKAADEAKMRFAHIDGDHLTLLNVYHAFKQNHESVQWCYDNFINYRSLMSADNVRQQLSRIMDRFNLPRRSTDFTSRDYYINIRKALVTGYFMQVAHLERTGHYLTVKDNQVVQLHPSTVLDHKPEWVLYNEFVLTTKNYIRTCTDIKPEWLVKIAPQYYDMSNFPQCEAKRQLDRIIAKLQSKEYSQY

What was measured:
[1] = molecular target: T1, CWF19‐like protein 2 (CWF19L2) (mouse (endogenous in testis)) (UniProt Q8BG79); experiment: co-IP; CWF19L2 immunoprecipitation from extracts of PD10 WT testes (NP-40 lysis buffer, antibody at 4 °C overnight, protein A/G magnetic beads), immunoblotting; IgG as negative control
T1 sequence: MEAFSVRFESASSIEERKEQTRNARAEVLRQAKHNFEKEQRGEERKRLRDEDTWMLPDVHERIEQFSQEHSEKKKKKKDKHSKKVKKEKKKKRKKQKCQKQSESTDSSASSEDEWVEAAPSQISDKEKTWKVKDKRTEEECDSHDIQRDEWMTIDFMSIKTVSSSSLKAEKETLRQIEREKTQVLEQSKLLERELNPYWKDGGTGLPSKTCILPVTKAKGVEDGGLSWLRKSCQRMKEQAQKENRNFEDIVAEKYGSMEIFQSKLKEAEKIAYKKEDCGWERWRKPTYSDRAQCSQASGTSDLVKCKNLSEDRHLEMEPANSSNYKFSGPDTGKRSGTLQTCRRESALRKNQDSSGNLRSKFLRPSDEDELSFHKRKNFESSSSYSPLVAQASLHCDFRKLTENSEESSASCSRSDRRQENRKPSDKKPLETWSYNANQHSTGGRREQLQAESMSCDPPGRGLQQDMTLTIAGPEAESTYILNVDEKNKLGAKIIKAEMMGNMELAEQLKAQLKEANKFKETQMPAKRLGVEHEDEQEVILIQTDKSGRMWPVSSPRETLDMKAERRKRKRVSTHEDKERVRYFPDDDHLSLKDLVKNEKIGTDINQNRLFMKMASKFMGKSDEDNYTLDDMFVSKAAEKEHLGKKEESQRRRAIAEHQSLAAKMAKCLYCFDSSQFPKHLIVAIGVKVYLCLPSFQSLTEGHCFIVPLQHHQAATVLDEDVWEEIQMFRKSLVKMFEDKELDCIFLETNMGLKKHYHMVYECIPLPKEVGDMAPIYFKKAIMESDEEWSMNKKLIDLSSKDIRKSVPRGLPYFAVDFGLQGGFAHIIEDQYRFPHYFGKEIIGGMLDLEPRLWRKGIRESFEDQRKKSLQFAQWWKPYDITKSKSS

[2] = molecular target: PRPF8 (mouse (endogenous in testis)) (UniProt Q99PV0); experiment: co-IP; PRPF8 antibody immunoprecipitation from sorted germ cells of control mice (for SLU7 also of Cwf19l2-SKO mice), immunoblotting; IgG as negative control
[3] = molecular target: PRPF8 (mouse (endogenous in testis)) (UniProt Q99PV0); experiment: co-IP; PRPF8 antibody immunoprecipitation from sorted germ cells of Cwf19l2-SKO mice (CWF19L2 deleted in germ cells), immunoblotting, bands quantified against control mice; IgG as negative control

binding [1] | binding [2] | binding [3] | Substance
binds |  |  | DHX9 (from UniProt O70133 1-1380)
binds |  |  | PABPC1 (from UniProt P29341 1-636)
binds | binds | binds weakly | PRPF43 (from UniProt O35286 1-795)
